The source of these data is publication PMC10869362.

For assay [1], the target named is detour:GFP (GFP-tagged detour, CG14435) (Drosophila) (UniProt Q9W3V3). Kind of assay: co-IP; S2 (SL2) cells co-transfected with detour:GFP (or GFP alone) and Flag:dor, Myc:Vps16A, HA:lt, one by one or all together; IP with anti-GFP, blots with anti-Flag, anti-Myc, anti-HA.
For assay [2], the target named is detourΔ:V5 (V5-tagged detour RING deletion) (Drosophila). Kind of assay: co-IP; SL2 cells co-transfected with detour:V5 or detourΔ:V5 and Flag:dor or Flag:Vps16A; IP with anti-V5, blots with anti-Flag and anti-V5.
The target in assay [3] is detour:V5 (V5-tagged detour) (Drosophila). The assay is described as above.

These are yes or no findings as the source states them, for the method shown. In cells and extracts the contact can be indirect. Binding can be weak; no strength is given. Sequences can lack the tags named with a protein.

B1: HA:lt (HA-tagged light) (protein, UniProt Q7PL76 1-841)
chain: MAKALPLISCDSWADSINEEDVEPKFKYHRLANDLKYMLNADVITCSAVHLKFLIFGTFRGRVCIFDHQGNSVYSNLSASERHTHQVAVNNIDVDHKGEYVATCSDDGKVNITGLFSSDNNHSLSFGKFIKVVSLEPDSKAHIKRFVVGDDKLILYERNLLKKLKPVELCSVEGSVLSICWHGNFIAWASHIGVRVYDLNERCSLGLIKWEVPPQERLENFRCHLRWSNKHTLLIGWVDTIRVCVIRKRNSIEASTGNLPVYIVDPISTFQTTFYVCGLAPLSAKQLVVLGFRKEKSSCFKALRPVLCVIEYKMNNSEEICTDSLTLRGFEEYTVNDYSLGGIIEENRFYIVAPKDIVVASLIETDDRIEWLIKHSKFEEAMELISANGGNVPVLSVAKLYINHLLALKKYDDAAKLCLRMLGNDKVLWEEEVFKFVKCQQLRSVSAYLPTSDECKLDPHVYEMVLYEFLKFDVCGFLNLIKEWPSHLYDGLAVINAIHDNFRKHYANQLLESLALLYSYQGDFESALRMYLKLQNKDVFQLIRRYELYDVISKLIIPLIQLDRDCAFEILLDKKKIKTEIVVHQLEHNQEYLYWYLDSLLKKDPSNVFQKKLISLYAIFDRNKLLPFLKRSKDYDIQEALVICKQENFYPEIVYLLGCMGGVEASEALNIIIHRIRDIEMAIEFCKEHDDSDLWNALINEFSKHPEIVTKVLDGIVDYFSPAVVVGKIKMGQNIPNLRQSLIKMLRHYNLQGEILSSAQQIQLNDYFEIHSEIVTTQRRGQQVSYEQLCSLCHRPVLMAGTHLYCIIRLECGHVYHKPCIQGELLKNCNECNLWKLTVGK
On to B1, for which, in assay [1], the binding entry is recorded as “binds”.

B2: Flag:dor (Flag-tagged deep orange) (protein, UniProt Q24314 1-1002)
chain: MDTSMPNQPKFLPRIEHNSSGATANSYVATASGNPFETDEEDEIFSRHKMVLRVPSNCTGDLMHLAVSRNWLVCLLGTPERTTLLRFFLPRAIPPGEAVLEKYLSGSGYKITRMFLDPTGHHIIIALVPKSATAGVSPDFLYIHCLESPQAQQLKVRRIEKFKDHEITAVAFNPYHGNESSTGPILLGTSRGLIFETELNPAADGHVQRKQLYDLGLGRPKYPITGLKLLRVPNSSRYIIVVTSPECIYTFQETLKAEERSLQAIFAGYVSGVQEPHCEERKTDLTFSQLRFFAPPNSKYPKQWAWLCGEGIRVGELSIEANSAATLIGNTLINLDFEKTMHLSYGERRLNTPKAFVLTEYHAVLLYADHVRAICLLNQEQVYQEAFDEARVGKPLSIERDELTGSIYVYTVKTVFNLRVTREERNVWRIYLDKGQYELATAHAAEDPEHLQLVLCQRADAAFADGSYQVAADYYAETDKSFEEVCLKFMVLPDKRPIINYVKKRLSRVTTKPMETDELDEDKMNIIKALVIWLIDLYLIQINMPDKDEEWRSSWQTEYDEFMMEAHVLSCTRQNRETVRQLIAEHADPRNMAQFAIAIGDYDEVVAQQLKAECYAEALQTLINQRNPELFYKYAPELITRLPKPTVDALMAQGSRLEVEKLVPTLIIMENREQREQTQRYLEFAIYKLNTTNDAIHNFLLHLYAEHEPKLLMKYLEIQGRDESLVHYDIYYAHKVCTDLDVKEARVFLECMLRKWISAVDLALTFDMKLAKETASRPSDSKIRRKLWLRIAYHDIKGTNDVKKALNLLKECDLLRIEDLLPFFADFEKIDNFKEAICDALRDYNQRIQELQREMAETTEQTDRVTAELQQLRQHSLTVESQDTCEICEMMLLVKPFFIFICGHKFHSDCLEKHVVPLLTKEQCRRLGTLKQQLEAEVQTQAQPQSGALSKQQAMELQRKRAALKTEIEDILAADCLFCGLLISTIDQPFVDDWEQVNVEWE
In the case of B2, the binding entry in assay [2], in assay [3] and in assay [1] was “binds” each time.

B3: Flag:Vps16A (Flag-tagged Vps16A) (protein, UniProt Q9VHG1 1-833)
chain: MPIMYNTGEWFKVRPDYYRKVELATPDWPLDLDLEYMWVEVAPYGGPLAVTRDPTKLVPVKGNARPMIRIFDTTGREMGHILWNHGKLIAMGWSDMEELICIQENATVFVYDMFGREKESYSIGDEASVTKIVEGKVFQSSAGTGVAVMTTSGRVFLKQNSSKTERKLPDIPNSSMNCSCWEIVTEGRNSYCLLGRDREVIKLFPGETVGTITANLFEKPHERIIKISVSYNHQHLALYTNTGLLWLGSVDMRQKYCEFDTGRKDMPLQMEWIMNSDNSEADAVVISYPSYLLIVNRNADRSDFPYDPVMFLVAEMDGVRIITQSSHEIIQRLPKCVENIFAVNSQEPASYLFEAQKKFEEKSYKSDEYLSMCREKIDLAVSECIEAASYEFCPETQKSLLRTAYFGKGFIRNHNPDEYMRIMRILRVLNTLRHERIAMPITFKQFSHLNTEVILSRLVFRKHYAIAIQVAKHLNLPESWILEHWAYHKVMNDPNDTEVARKITEKFKNPSVEGISFCNIASKAHQAGRDDLAIKLLELESRASLHVPLLLKMRKFDRAVGSATQSGDTELITQVLLEMKMHMMLSNLHMTIRDHPLALNIYKKIMRESNRAGLYGIYNTEDDQKAIAEYHFQNAIETEGLESNLSMIGNAYAQGRCTLEAELCADTSRLIKLQKTLSTKYNVSLNGLSIHETIQELLLIGELKEAERIRSEFKVPDRRFWWLRILTLSSQHKWEELEKLAKSKKSPIGYDPFVEVCLKQDNVMEARKYIPRCRDNRRVVWYMRANLFNEAIDSAFEQRDVHSLFELQKNQAIVNNGTLLSKVCDCIAMLEGK
Turning to B3, the binding entry in assay [2] and in assay [3] was “binds” each time.

B4: Myc:Vps16A (Myc-tagged Vacuolar protein sorting 16A) (protein, UniProt Q9VHG1 1-833)
chain: B3 chain
For B4, the binding result in assay [1] was “binds”.
